No constants are given. Whether binding was seen depends on the method and setting. Some entries that bind do so weakly or less than the wild type.
What was measured:
[1] = molecular target: Escherichia coli glutamate kinase (Escherichia coli) (UniProt P0A7B5); assay: negative-stain electron microscopy
[2] = molecular target: truncated-EcGK (PUA domain deletion mutant, EcGK truncated after residue 274) (Escherichia coli) (UniProt P0A7B5); assay: negative-stain electron microscopy

Binder | binding [1] | binding [2]
Escherichia coli glutamate kinase (enzyme, UniProt P0A7B5 1-367, looked up) MSDSQTLVVKLGTSVLTGGSRRLNRAHIVELVRQCAQLHAAGHRIVIVTSGAIAAGREHLGYPELPATIASKQLLAAVGQSRLIQLWEQLFSIYGIHVGQMLLTRADMEDRERFLNARDTLRALLDNNIVPVINENDAVATAEIKVGDNDNLSALAAILAGADKLLLLTDQKGLYTADPRSNPQAELIKDVYGIDDALRAIAGDSVSGLGTGGMSTKLQAADVACRAGIDTIIAAGSKPGVIGDVMEGISVGTLFHAQATPLENRKRWIFGAPPAGEITVDEGATAAILERGSSLLPKGIKSVTGNFSRGEVIRICNLEGRDIAHGVSRYNSDALRRIAGHHSQEIDAILGYEYGPVAVHRDDMITR | binds weakly | –
truncated-EcGK (PUA domain deletion mutant, EcGK truncated after residue 274) (domain or fragment, UniProt P0A7B5 1-274) MSDSQTLVVKLGTSVLTGGSRRLNRAHIVELVRQCAQLHAAGHRIVIVTSGAIAAGREHLGYPELPATIASKQLLAAVGQSRLIQLWEQLFSIYGIHVGQMLLTRADMEDRERFLNARDTLRALLDNNIVPVINENDAVATAEIKVGDNDNLSALAAILAGADKLLLLTDQKGLYTADPRSNPQAELIKDVYGIDDALRAIAGDSVSGLGTGGMSTKLQAADVACRAGIDTIIAAGSKPGVIGDVMEGISVGTLFHAQATPLENRKRWIFGAPP | – | no binding (tested: about 2 μM)
